Reference: publication PMC12088036
These are yes or no findings as the source states them, for the method shown. Binding seen in cells or lysates may run through a third protein. Some binding calls cover weakened binding; strength is not graded here.

The chains behind the UniProt entries cited, without tags or fusion partners.
UniProt Q92878: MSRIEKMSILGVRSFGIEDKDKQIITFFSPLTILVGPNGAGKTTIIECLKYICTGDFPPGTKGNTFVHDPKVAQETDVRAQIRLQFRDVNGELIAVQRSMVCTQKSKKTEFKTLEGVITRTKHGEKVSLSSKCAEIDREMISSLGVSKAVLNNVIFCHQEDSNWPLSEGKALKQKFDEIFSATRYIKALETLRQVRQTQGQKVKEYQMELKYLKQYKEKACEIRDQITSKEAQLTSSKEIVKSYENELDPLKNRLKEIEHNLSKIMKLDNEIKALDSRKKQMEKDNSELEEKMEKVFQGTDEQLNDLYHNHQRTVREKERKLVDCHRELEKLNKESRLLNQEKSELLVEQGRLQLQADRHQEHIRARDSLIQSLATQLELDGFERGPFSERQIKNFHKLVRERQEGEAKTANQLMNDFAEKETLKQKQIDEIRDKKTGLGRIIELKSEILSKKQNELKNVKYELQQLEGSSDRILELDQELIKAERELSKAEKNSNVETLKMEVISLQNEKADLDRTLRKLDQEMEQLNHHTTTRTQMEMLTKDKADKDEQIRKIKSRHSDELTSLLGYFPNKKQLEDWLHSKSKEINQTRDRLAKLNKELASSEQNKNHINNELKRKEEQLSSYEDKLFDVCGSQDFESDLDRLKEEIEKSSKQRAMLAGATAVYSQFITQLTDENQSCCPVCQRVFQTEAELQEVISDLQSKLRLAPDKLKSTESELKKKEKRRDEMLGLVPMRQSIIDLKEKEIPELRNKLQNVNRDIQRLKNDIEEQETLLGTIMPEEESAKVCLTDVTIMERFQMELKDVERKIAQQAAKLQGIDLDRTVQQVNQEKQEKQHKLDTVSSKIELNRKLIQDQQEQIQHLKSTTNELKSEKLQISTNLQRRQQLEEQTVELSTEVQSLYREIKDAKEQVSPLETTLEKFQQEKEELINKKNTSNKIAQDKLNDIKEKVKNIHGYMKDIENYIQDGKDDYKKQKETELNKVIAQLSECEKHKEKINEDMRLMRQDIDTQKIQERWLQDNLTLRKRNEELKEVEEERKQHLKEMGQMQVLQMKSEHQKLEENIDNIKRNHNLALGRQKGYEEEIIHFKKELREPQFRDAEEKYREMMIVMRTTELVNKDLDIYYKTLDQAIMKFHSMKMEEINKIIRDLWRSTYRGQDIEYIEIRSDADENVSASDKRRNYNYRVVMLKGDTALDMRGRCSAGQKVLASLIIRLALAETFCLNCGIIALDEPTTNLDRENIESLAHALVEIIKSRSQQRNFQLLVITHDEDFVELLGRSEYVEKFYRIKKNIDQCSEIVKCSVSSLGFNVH
UniProt O60934: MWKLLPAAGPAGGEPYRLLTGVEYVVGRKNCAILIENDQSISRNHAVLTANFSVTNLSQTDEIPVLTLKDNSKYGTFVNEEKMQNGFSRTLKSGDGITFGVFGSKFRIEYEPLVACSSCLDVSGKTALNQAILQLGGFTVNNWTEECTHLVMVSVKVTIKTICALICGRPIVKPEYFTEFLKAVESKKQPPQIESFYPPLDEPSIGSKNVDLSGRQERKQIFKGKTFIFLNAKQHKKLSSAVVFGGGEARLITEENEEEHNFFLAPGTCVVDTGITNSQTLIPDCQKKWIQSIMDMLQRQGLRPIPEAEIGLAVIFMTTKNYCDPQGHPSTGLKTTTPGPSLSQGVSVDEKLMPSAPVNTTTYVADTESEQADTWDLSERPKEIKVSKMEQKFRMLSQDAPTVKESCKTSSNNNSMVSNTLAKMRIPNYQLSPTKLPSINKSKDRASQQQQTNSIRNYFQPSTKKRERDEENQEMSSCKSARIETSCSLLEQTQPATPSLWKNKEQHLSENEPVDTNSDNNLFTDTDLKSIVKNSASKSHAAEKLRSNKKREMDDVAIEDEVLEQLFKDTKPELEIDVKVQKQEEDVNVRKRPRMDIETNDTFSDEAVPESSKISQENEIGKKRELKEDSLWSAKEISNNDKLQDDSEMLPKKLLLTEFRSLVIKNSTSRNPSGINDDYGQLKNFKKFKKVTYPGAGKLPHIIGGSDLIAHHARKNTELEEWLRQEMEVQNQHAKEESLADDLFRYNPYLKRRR

Target: T1, Peroxiredoxin 1 (human (endogenous in HeLa and HEK293)) (UniProt Q06830)
T1 sequence: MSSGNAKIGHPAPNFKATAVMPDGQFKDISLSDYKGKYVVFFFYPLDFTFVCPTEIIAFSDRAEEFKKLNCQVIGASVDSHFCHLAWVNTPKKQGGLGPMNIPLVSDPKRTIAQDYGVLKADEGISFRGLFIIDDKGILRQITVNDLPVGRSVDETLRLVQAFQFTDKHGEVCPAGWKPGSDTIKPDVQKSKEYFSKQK
Assay: co-IP; anti-PRDX1 antibody on total extracts of HeLa or HEK293 control cells (RIPA buffer, sonicated); lysates pre-treated with DNaseI for 30 min; antibody overnight, protein A/G magnetic beads 2 h at room temperature; 4 washes in PBS with 0.01% Tween 20; western blot; PRDX1-deleted cells as negative control

binding	Substance
binds	RAD50 (from UniProt Q92878 1-1312)
binds	NBS1 (from UniProt O60934 1-754)
